Reference: PMC12284618 (Chemistry (Weinheim an Der Bergstrasse, Germany), 2025)
HELM strings list residues between dots; [ac] is acetyl, [am] amide, other brackets name non-standard units.

Experiment: general procedure: Fmoc solid-phase peptide synthesis; Fmoc-Rink MBHA Amide resin (low loading, 0.42 mmol/g); HBTU/HOBt/DIPEA, then DIC/HOBt (double coupling)
Conditions: late stage modification step; for final HPLC purity: 218 nm

PEPTIDE1{[PraTzM6Po].W.[PraTzM6Po].K.[PraTzM6Po].[am]}$$$$V2.0
step yield: 54%
final HPLC purity: ≥95%

PEPTIDE1{[ac].[PraTzM6Po].W.[PraTzM6Po].[Lys(Ac)].[PraTzM6Po].[am]}$$$$V2.0
step yield: 44%
final HPLC purity: ≥95%
